Data reported in patent US20080248574A1, “ANTAGONISTS OF THE INTERACTION OF MELANOMA INHIBITORY ACTIVITY (MIA) AND P66SHC” (University of Pittsburgh - Of the Commonwealth System of …, priority 2007, published 2008).
No constants are given. Whether binding was seen depends on the method and setting. For some assays here: Binding seen in cells or lysates may run through a third protein. Some entries that bind do so weakly or less than the wild type. For some assays here: Where a sequence is shown, tags or fusion partners need not be part of it. Values belong to the binder of their own block, whether it stands above or below them.

Columns and labels:
[1] = target: T1, SH3-like domain of MIA (spotted on TransSignal SH3 Domain Array III, Panomics) (UniProt Q16674); test: far-Western blotting of an SH3 domain array
T1 sequence (looked up): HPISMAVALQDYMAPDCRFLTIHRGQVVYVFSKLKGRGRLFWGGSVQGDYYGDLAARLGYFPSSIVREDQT

[2] = target: T2, Melanoma Inhibitory Activity (MIA) (human) (UniProt Q16674); test: co-precipitation from COS7 cells
T2 sequence (looked up): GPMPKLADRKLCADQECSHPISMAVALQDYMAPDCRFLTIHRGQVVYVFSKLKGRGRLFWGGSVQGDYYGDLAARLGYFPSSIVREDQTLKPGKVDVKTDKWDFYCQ

binding [1]: binds
B1: Recombinant (His)6-tagged CH2 domain of p66shc (protein, not shown: small tags and cut ends)
chain: MNLLPPKPKYNPLRNESLSSMEEGASGSTPPEELPSPPASSLGPILPPLPGDDSPTTLCSFFPRMSNLRLANPAGGRPGSKGEPGRAADDGEGIVGAAMPDSGPLPLLQD

binding [2]: binds
B2: isolated CH2 domain of p66shc expressed in COS7 cells (protein)
chain: B1 chain
